Measured values published in article PMC9832878.
Results are given in words; binding and its absence hold for the method and conditions named. Sequences can lack the tags named with a protein.

Amino acid sequences for entries named in this document (tags omitted).
UniProt Q40168: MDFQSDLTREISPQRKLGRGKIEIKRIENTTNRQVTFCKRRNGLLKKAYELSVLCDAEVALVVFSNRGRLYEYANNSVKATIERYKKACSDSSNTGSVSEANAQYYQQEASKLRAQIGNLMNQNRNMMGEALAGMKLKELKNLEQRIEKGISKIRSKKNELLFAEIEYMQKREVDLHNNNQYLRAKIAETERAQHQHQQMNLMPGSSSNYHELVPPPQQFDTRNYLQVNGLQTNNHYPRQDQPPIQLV

Molecular target: T1, SlGASA1 fused to the GAL4 DNA-binding domain (tomato (Solanum lycopersicum)) (UniProt P27057)
T1 sequence: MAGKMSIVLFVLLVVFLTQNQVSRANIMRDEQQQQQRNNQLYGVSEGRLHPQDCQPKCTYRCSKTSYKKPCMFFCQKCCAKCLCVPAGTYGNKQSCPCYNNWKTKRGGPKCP
Assay: two-hybrid; SlGASA1 on the GAL4 DNA-binding domain (pGBKT7) as bait, ripening regulators on the GAL4 activation domain (pGADT7) as preys; yeast AH109; growth on SD-Leu-Trp-His-Ade

TAG1 fused to the GAL4 activation domain (from UniProt Q40168 1-248)
binding: no binding
